PMC3314965
These are yes or no findings as the source states them, for the method shown. In cells and extracts the contact can be indirect.

Chains of the proteins cited; added tags and fusions are not shown. Residues count along the entry.
UniProt P28824, residues 22-928: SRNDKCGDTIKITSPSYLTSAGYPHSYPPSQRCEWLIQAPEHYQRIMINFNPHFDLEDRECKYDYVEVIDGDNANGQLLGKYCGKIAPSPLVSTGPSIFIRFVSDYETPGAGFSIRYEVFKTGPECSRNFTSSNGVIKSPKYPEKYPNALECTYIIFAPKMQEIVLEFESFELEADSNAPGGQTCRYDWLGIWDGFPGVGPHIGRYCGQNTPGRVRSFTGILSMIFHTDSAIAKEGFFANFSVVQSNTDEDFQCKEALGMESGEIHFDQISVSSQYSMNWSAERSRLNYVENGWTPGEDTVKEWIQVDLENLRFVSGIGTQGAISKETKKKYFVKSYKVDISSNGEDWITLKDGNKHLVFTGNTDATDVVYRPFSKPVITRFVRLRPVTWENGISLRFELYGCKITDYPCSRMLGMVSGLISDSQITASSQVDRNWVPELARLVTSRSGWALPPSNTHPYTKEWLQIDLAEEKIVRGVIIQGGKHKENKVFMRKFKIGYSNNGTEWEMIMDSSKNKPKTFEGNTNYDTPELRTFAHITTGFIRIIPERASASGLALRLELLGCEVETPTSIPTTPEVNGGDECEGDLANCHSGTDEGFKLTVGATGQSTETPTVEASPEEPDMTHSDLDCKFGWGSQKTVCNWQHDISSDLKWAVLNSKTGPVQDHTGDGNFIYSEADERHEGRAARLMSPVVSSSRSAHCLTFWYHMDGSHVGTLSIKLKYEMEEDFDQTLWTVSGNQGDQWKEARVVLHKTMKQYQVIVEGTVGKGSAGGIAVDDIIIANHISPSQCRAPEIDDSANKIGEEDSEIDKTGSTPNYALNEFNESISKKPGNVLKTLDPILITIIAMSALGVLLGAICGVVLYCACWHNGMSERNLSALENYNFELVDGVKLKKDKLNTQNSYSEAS

Target: neuropilin1 (Xenopus laevis (endogenous in cultured retinal explants)) (UniProt P28824)
Experiment: proximity ligation; Duolink in situ PLA on fixed, permeabilised cultured retinal explants (RGC growth cones) from Xenopus embryos; pairs of mouse and rabbit primary antibodies; positive signal only when the two antibodies are within 40 nm

- binding: no binding
B1: lamin B2 (protein, UniProt P21910 1-623)
chain: MATTTPSRSTRSSMQSPARGTSTPLSPTRISRLQEKEELRHLNDRLAVYIDRVRALELENDRLMVKISEKEEVTTREVSGIKNLYESELADARKVLDETARERARLQIELGKFRSDLDELNKNYKKKDADLSTAQGRIKDLEALFHRSEAELGTALGEKRSLEAEVADLRAQLSKTEDAHRVAKKQLEKETLMRVDFENRMQSLQEEMDFRKNIYEEESRETRKRHERRIVEVDRGHHYDYESKLAQALDELRKQHDEQVKMYKEELEQTYQAKLDNIKRSSDHNDKAANTALEELTERRMRIETLGYQLSGLQKQANAAEERIRELEELLSSDRDKYRKLLDSKEREMAEMRDQMQQQLNEYQELLDVKLALDLEINAYRKLLEGEEERLKLSPSPESRVTVSRATSSSSSATRTSRSKRRRVEEEYEEGGASTGFGAGHSLGSSRITASEGSSRTITSGQSSTTRFHLSQQASATGSISIEEIDLEGKYVHLKNNSDKDQSLGNWRLKRKIGEEEEIVYKFTPKYVLKAGQSVKIYSADAGVAHSPPSILVWKNQSSWGTGSNIRTYLVNTEEEEVAVRTVTKSVLRNVEEEEDEDADFGEEDLFHQQGDPRTTSRGCSVM
